This note sets out measurements from US20220202864A1.

Amino acid sequences for entries named in this document (tags omitted). A change or cut given only in a name is not applied to a line headed by its entry. Residues count along the entry.
UniProt Q02223, residues 1-54: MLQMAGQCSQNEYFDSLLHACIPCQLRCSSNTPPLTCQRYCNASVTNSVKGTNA
UniProt P01644: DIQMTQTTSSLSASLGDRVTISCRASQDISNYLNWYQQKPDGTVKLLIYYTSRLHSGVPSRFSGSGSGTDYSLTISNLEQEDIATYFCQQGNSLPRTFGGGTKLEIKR

Results are given in words; binding and its absence hold for the method and conditions named. Some binding calls cover weakened binding; strength is not graded here.

This assay has as its target BCMA antigen (UniProt Q02223). The experiment in a line: flow cytometry, dual CAR-T cells stained with BCMA antigen. Background: In flow cytometry, cells or beads pass a laser one at a time.

Consider CAR-J4 (from UniProt P01644 1-106), for which the binding result was “binds”.
